In PubChem BioAssay AID587 (National Center for Advancing Translational Sciences (NCATS), 2007):
In all, about 59,000 compounds went through this assay and about 35 (0.06%) were called active. The shares of active, inactive and inconclusive entries below differ from those in the screen. No stated cut-off is given here; in the data, active means max dye-equivalent concentration above about 10 nM; inconclusive means between about 1.1 nM and that limit; inactive means weaker than that.

Test: qHTS Assay for Spectroscopic Profiling in Texas Red Spectral Region
Conditions: Compound fluorescence, Texas Red channel, 547/618 nm; active compounds read high
In short: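 Pin-transferred compounds and Texas Red standards go into 100 mM Tris buffer, pH 8.0. After 15 min at room temperature, plates are imaged with 547/618 nm filters. Each value is a dye-equivalent concentration derived from the per-plate dye curve.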
For `COCCNc1nc(C(C)(C)C)nc2c1nnn2Cc1ccccc1Cl`, the max dye-equivalent concentration was inconclusive: 1.1 nM.
With `CC(=O)OCC(=O)NCc1ccc2c(c1)OCO2` the max dye-equivalent concentration was “inactive”.
In the case of `COc1ccc(C2(O)CCN(C(=O)NC3CCCCC3)CC2)cc1`, the max dye-equivalent concentration is reported as inconclusive: 1.1 nM.
For `CCOC(=O)C1CCCN(Cc2cc(Br)c(OC)cc2OC)C1` (stereo unspecified), the max dye-equivalent concentration was inconclusive: 1.2 nM.
In the case of `Cc1ccc(N(C(C)C(=O)Nc2ccccc2C(=O)N2CCOCC2)S(C)(=O)=O)cc1C` (stereo unspecified), the max dye-equivalent concentration is reported as inconclusive: 1.2 nM.
For `CN(C)Cc1ccccc1-c1cncnc1Nc1ccccc1`, the max dye-equivalent concentration was “inactive”.
In the case of `O=c1cc(NCC2CCCO2)[nH]c(=O)n1-c1ccc(Cl)cc1` (stereo unspecified), the max dye-equivalent concentration is reported as inconclusive: 1.5 nM.
In the case of `CCC1=C/C(=C/N(C)c2ccccc2)C(=O)S1`, the max dye-equivalent concentration is reported as “inactive”.
With `Cc1cc(C(=O)OCCO)c(C#N)c(N)n1` the max dye-equivalent concentration was inconclusive: 1.5 nM.
For `COc1ccc(N(C(=O)C(C)C)S(=O)(=O)c2ccc3c(c2)n(C)c(=O)n3C)cc1`, the max dye-equivalent concentration was inconclusive: 1.4 nM.
In the case of `C=CCn1c(N)c(C(=O)Nc2ccccc2OC)sc1=S`, the max dye-equivalent concentration is reported as inconclusive: 1.6 nM.
With `O=C1CCCC2=C1C1(CCCC1)N=C(Nc1nc3ccccc3o1)N2` the max dye-equivalent concentration was inconclusive: 1.1 nM.
With `O=C(CSc1nnc(Cc2cccs2)n1C1CCCCC1)N1CCCc2ccccc21` the max dye-equivalent concentration was inconclusive: 1.4 nM.
In the case of `COCCN(C(=O)c1ccccc1)c1nnc(-c2cccnc2)s1`, the max dye-equivalent concentration is reported as inconclusive: 1.1 nM.
For `c1ccc2c(c1)CCN(Cc1nnnn1Cc1ccc3c(c1)OCO3)C2`, the max dye-equivalent concentration was inconclusive: 2 nM.
With `Cc1cc(C)n(-c2nc(NCCO)c3c4c(sc3n2)CCCC4)n1` the max dye-equivalent concentration was inconclusive: 2.4 nM.
In the case of `Cc1ccc(-c2nnc(N3CCN(C(=O)CN4C(=O)c5ccccc5C4=O)CC3)c3ccccc23)cc1`, the max dye-equivalent concentration is reported as inconclusive: 1.8 nM.
With `O=C(CSc1nnnn1-c1ccccc1)N1CCN(C(=O)c2ccco2)CC1` the max dye-equivalent concentration was inconclusive: 1.8 nM.
For `CSc1ccc(S(=O)(=O)NCCOc2ccccc2C)cc1`, the max dye-equivalent concentration was inconclusive: 2.6 nM.
For `O=C(c1ccccc1)N1CCN(CC#CC2(O)CCCCC2)CC1`, the max dye-equivalent concentration was inconclusive: 1.7 nM.
In the case of `COCCOC(=O)C(C#N)c1nc2ccccc2nc1N1CCN(Cc2ccccc2)CC1` (stereo unspecified), the max dye-equivalent concentration is reported as inconclusive: 1.3 nM.
In the case of `CCOC(=O)c1ccc(N2C(=O)c3n[nH]c(C)c3C2c2ccc(OC)cc2)cc1` (stereo unspecified), the max dye-equivalent concentration is reported as inconclusive: 1.5 nM.
With `Nn1c(-c2ccco2)n[nH]c1=S` the max dye-equivalent concentration was inconclusive: 1.5 nM.
For `O=C(CCc1ccccc1)n1nc(-c2ccccc2)nc1NCc1ccco1`, the max dye-equivalent concentration was inconclusive: 1.4 nM.
In the case of `COCCNC(=O)COC(=O)CSCc1nc2ccccc2s1`, the max dye-equivalent concentration is reported as inconclusive: 1.1 nM.
With `CC1CN(Cc2nc3c(c(=O)[nH]c(=O)n3C)n2CCCc2ccccc2)CC(C)O1` (stereo unspecified) the max dye-equivalent concentration was inconclusive: 1.2 nM.
In the case of `O=C(CSc1ncnc2sc3c(c12)CCCC3)c1ccco1`, the max dye-equivalent concentration is reported as inconclusive: 1.9 nM.
For `COc1ccc(C(=O)N2CCc3cc(OC)c(OC)cc3C2)cc1OC`, the max dye-equivalent concentration was inconclusive: 1.5 nM.
With `CC(C)NC[C@@H](O)COc1cccc2ccccc12` the max dye-equivalent concentration was inconclusive: 1.3 nM.
In the case of `N#CC(C#N)=c1ccc2c(c1)NC1(CCCCC1)N=2`, the max dye-equivalent concentration is reported as inconclusive: 8.7 nM.
With `CC(=O)Nc1ccc(S(=O)(=O)Nc2cc(C)c(-n3nc4ccccc4n3)cc2O)cc1` the max dye-equivalent concentration was inconclusive: 1.5 nM.
In the case of `Cc1nc2ccccc2n1S(=O)(=O)c1ccc(S(=O)(=O)N2CCCCCC2)cc1`, the max dye-equivalent concentration is reported as inconclusive: 2 nM.
For `CCn1c(SCC(=O)Nc2ccc3c(c2)OCCO3)nnc1-c1ccco1`, the max dye-equivalent concentration was inconclusive: 1.2 nM.
In the case of `COc1ccc(CN2C(=O)CCC2(C)C(=O)NC2CCCCCC2)cc1` (stereo unspecified), the max dye-equivalent concentration is reported as inconclusive: 1.1 nM.
For `COc1cc(NC(=O)c2cccs2)ccc1NC(=O)c1ccco1`, the max dye-equivalent concentration was inconclusive: 1.5 nM.
In the case of `CCCCn1c(SCC(=O)Nc2nnc(CC)s2)nc2c1c(=O)n(C)c(=O)n2C`, the max dye-equivalent concentration is reported as inconclusive: 1.6 nM.
In the case of `COc1ccc(N2CCN(c3nc4c(c(=O)n(C)c(=O)n4C)n3Cc3ccccc3)CC2)cc1`, the max dye-equivalent concentration is reported as inconclusive: 1.1 nM.
For `Cc1ccc(-c2noc(C3CCN(S(=O)(=O)c4ccc5c(c4)OCCO5)CC3)n2)o1`, the max dye-equivalent concentration was inconclusive: 1.4 nM.
In the case of `COc1ccccc1C(=O)NC(CCSC)C(=O)OCC(=O)NC(=O)NCc1ccco1` (stereo unspecified), the max dye-equivalent concentration is reported as inconclusive: 1.3 nM.
For `CC(=O)NC1CC(C)(C)N(OC(C)=O)C(C)(C)C1`, the max dye-equivalent concentration was inconclusive: 1.2 nM.
In the case of `O=C(COC(=O)C1CC(=O)N(Cc2ccccc2)C1)Nc1ccc2c(c1)OCO2` (stereo unspecified), the max dye-equivalent concentration is reported as inconclusive: 1.1 nM.
In the case of `C[N+]1(C)CCC[C@@H](OC(=O)C(O)(c2ccccc2)c2ccccc2)C1`, the max dye-equivalent concentration is reported as inconclusive: 1.5 nM.
With `CCN1CCN(C(=O)c2cc3sccc3n2CC(=O)c2ccccc2)CC1` the max dye-equivalent concentration was inconclusive: 1.4 nM.
For `N#Cc1ccccc1NC(=O)CSc1nnc(-c2ccccc2)n1-c1ccccc1`, the max dye-equivalent concentration was inconclusive: 1.4 nM.
For `O=C(NCc1ccc2c(c1)OCO2)c1ccc2c(c1)C(=O)N(CC1CCCO1)C2=O` (stereo unspecified), the max dye-equivalent concentration was inconclusive: 1.5 nM.
For `Cc1ccccc1Nc1nnc(C)c(=O)[nH]1`, the max dye-equivalent concentration was inconclusive: 1.1 nM.
With `COc1ccc(-c2nnc3sc(CCN4C(=O)c5ccccc5C4=O)nn23)cc1` the max dye-equivalent concentration was inconclusive: 1.3 nM.
In the case of `COc1cc2c(cc1OC)CN(C(=O)Cc1ccc(OC)c(S(=O)(=O)N3CCOCC3)c1)CC2`, the max dye-equivalent concentration is reported as inconclusive: 1.3 nM.
With `Cc1cc(NC(=O)c2noc3c2CCCCC3)no1` the max dye-equivalent concentration was inconclusive: 1.5 nM.
For `CCN1C(=O)/C(=C\N2CCCc3ccccc32)SC1=S`, the max dye-equivalent concentration was inconclusive: 1.1 nM.
In the case of `COc1ccc(-c2[nH]nc3oc(=O)cc(C)c23)cc1`, the max dye-equivalent concentration is reported as inconclusive: 1.6 nM.
For `COc1ccc(-c2nnc(SCCOc3cccc(C)c3)n2N)cc1`, the max dye-equivalent concentration was inconclusive: 1.3 nM.
In the case of `CC(=O)Nc1nonc1-n1nnc(C(=O)NCc2ccccc2)c1C`, the max dye-equivalent concentration is reported as inconclusive: 1.1 nM.
For `COc1ccccc1-c1nc(C#N)c(N2CCN(Cc3ccccc3)CC2)o1`, the max dye-equivalent concentration was inconclusive: 2 nM.
For `CCOC(=O)CSc1nnc(CNC(=O)c2cccs2)n1-c1cc(OC)ccc1OC`, the max dye-equivalent concentration was inconclusive: 1.1 nM.
For `CN(CCO)Cc1ncccc1O`, the max dye-equivalent concentration was inconclusive: 1.2 nM.
In the case of `COc1ccc(-c2nc3cnc(Nc4ccccc4)nc3n(Cc3cccs3)c2=O)cc1`, the max dye-equivalent concentration is reported as inconclusive: 1.4 nM.
For `CCCNS(=O)(=O)c1ccc(CCC(=O)Nc2ccc3c(c2)OCO3)cc1`, the max dye-equivalent concentration was inconclusive: 1.1 nM.
With `CCC(NC(=O)Nc1cc(OC)c(OC)c(OC)c1)(C(F)(F)F)C(F)(F)F` the max dye-equivalent concentration was inconclusive: 1.1 nM.
In the case of `CN(C)c1ncc2nc(-c3ccc(F)cc3)c(=O)n(C)c2n1`, the max dye-equivalent concentration is reported as “inactive”.
For `CCOC(=O)C1=C(C)NC(=O)NC1c1c(C)nn(-c2ccccc2)c1Cl` (stereo unspecified), the max dye-equivalent concentration was inconclusive: 2 nM.
For `CN1/C(=C\C(=O)c2ccco2)C(C)(C)c2ccccc21`, the max dye-equivalent concentration was inconclusive: 1.6 nM.
With `CCC(=O)OCN1C(=O)C=CC1=O` the max dye-equivalent concentration was “inactive”.
For `CC(=O)N1c2ccccc2C(C)CC12CCCCC2` (stereo unspecified), the max dye-equivalent concentration was inconclusive: 2.3 nM.
In the case of `O=C(CCN1CCN(c2ccccc2)CC1)Nc1ccccc1F`, the max dye-equivalent concentration is reported as inconclusive: 1.7 nM.
For `CCOc1ccc(N(Cc2cc3ccc(C)cc3[nH]c2=O)C(=O)COC)cc1`, the max dye-equivalent concentration was inconclusive: 1.6 nM.
With `Nc1nc(N)nc(-c2ccccn2)n1` the max dye-equivalent concentration was inconclusive: 1.1 nM.
With `Cn1c(=O)[nH]c(=O)c2c1nc(N1CCOCC1)n2CCN1CCOCC1` the max dye-equivalent concentration was inconclusive: 1.9 nM.
For `O=C(Nc1ccccc1)N1CC[C@@]2(CCCN(C(=O)c3cccc(F)c3)C2)C1`, the max dye-equivalent concentration was “inactive”.
In the case of `COc1ccc(Cn2nnnc2CN(Cc2cc3cccc(C)c3[nH]c2=O)C2CCCC2)cc1`, the max dye-equivalent concentration is reported as inconclusive: 1.1 nM.
With `CC(C)CC(C(=O)NCc1ccccn1)N1C(=O)c2ccccc2C1=O` (stereo unspecified) the max dye-equivalent concentration was inconclusive: 2.1 nM.
With `CCN(CC)c1cccc(OCC(=O)N(C)CCC#N)c1` the max dye-equivalent concentration was inconclusive: 1.7 nM.
In the case of `Cc1c(NC(=O)c2cc(-c3ccccc3)on2)c(=O)n(-c2ccccc2)n1C`, the max dye-equivalent concentration is reported as inconclusive: 1.2 nM.
In the case of `O=C1[C@@H]2[C@@H](C(=O)N1c1ccc(OCc3ccccc3)cc1)[C@@H]1c3ccccc3[C@@H]2[n+]2ccccc21`, the max dye-equivalent concentration is reported as “inactive”.
For `O=C(NC1CCCC1)C(c1ccccc1F)N(C(=O)c1ccco1)C1CCCC1` (stereo unspecified), the max dye-equivalent concentration was inconclusive: 1.1 nM.
For `O=C(Nc1ccc(-n2cnnn2)cc1)C1CCCN1C(=O)NC1CCCCC1` (stereo unspecified), the max dye-equivalent concentration was inconclusive: 1.7 nM.
For `CN(C)CCOC(=O)c1ccc(N)cc1`, the max dye-equivalent concentration was “inactive”.
With `CCOC(=O)c1c(NC(C)=O)sc2c(O)c(CN3CCN(CC)CC3)ccc12` the max dye-equivalent concentration was inconclusive: 1.1 nM.
For `O=C(CSCCO)Nc1cc(C(F)(F)F)ccc1Cl`, the max dye-equivalent concentration was inconclusive: 1.4 nM.
For `CC1(C)CC(=O)C2=C(C1)Nc1ncnn1C2c1ccccn1` (stereo unspecified), the max dye-equivalent concentration was inconclusive: 1.1 nM.
In the case of `CCOC(=O)c1c(N)sc(C(=O)N2CCOCC2)c1C`, the max dye-equivalent concentration is reported as inconclusive: 1.2 nM.
In the case of `Cc1cc2oc(=O)c3c(c2cc1OC(=O)c1ccco1)CCCC3`, the max dye-equivalent concentration is reported as inconclusive: 1.1 nM.
In the case of `COC(=O)c1cc(/C=C/c2ccccc2)on1`, the max dye-equivalent concentration is reported as inconclusive: 1.1 nM.
For `Cc1cc(Cl)c(S(=O)(=O)N2CCCCCC2)cc1OCC(N)=O`, the max dye-equivalent concentration was inconclusive: 1.5 nM.
In the case of `COc1ccccc1CNC(=O)c1c(O)c2cc(OC)c(OC)cc2[nH]c1=O`, the max dye-equivalent concentration is reported as inconclusive: 1.6 nM.
In the case of `CS(=O)(=O)NCC(c1cccnc1)N1CCN(c2ccc(F)cc2)CC1` (stereo unspecified), the max dye-equivalent concentration is reported as inconclusive: 1.3 nM.
